Measured values from article doi:10.1101/2023.04.14.536856.
These are yes or no findings as the source states them, for the method shown. In cells and extracts the contact can be indirect. Binding calls can cover weak binding; strength is not graded here. Where a sequence is shown, tags or fusion partners need not be part of it.

Tests used:
Test in all cases: split reporter
[1] = biological target: T1, NF-YC5-nLUC (Arabidopsis) (UniProt Q9FGP6)
T1 sequence: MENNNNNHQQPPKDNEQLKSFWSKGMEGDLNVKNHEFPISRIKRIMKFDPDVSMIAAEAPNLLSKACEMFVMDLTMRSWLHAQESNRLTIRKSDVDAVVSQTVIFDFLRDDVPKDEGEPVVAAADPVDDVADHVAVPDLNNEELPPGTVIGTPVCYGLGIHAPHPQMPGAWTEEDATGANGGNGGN

[2] = biological target: T2, NF-YC7-nLUC (Arabidopsis) (UniProt Q9FGP8)
T2 sequence: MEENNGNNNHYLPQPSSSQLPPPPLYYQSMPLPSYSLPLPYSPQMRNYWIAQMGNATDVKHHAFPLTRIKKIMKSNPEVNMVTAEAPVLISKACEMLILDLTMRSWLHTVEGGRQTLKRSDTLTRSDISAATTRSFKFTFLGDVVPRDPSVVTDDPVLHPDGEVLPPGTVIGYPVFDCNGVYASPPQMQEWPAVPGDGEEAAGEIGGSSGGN

[3] = biological target: T3, NF-YC8-nLUC (Arabidopsis) (UniProt Q4PSE2)
T3 sequence: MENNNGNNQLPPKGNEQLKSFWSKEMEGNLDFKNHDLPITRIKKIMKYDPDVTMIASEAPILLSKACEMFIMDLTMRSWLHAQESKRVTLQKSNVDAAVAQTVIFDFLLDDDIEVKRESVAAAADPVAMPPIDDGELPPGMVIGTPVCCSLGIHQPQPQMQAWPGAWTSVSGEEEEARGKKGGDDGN

Measured: binding

LRB1
binds: all assays above

LRB2
binds: all assays above
